Assay results taken from paper doi:10.1101/597153.
Substitutions are numbered along the chain they refer to. No constants are given. Whether binding was seen depends on the method and setting. In cells and extracts the contact can be indirect. Some binding calls cover weakened binding; strength is not graded here. For some of these results: Tags and fused reporters may be left off the sequences shown. Values belong to the binder of their own block, whether it stands above or below them.

By UniProt entry, the sequences of proteins in these tests, tags left out.
UniProt Q96EB6: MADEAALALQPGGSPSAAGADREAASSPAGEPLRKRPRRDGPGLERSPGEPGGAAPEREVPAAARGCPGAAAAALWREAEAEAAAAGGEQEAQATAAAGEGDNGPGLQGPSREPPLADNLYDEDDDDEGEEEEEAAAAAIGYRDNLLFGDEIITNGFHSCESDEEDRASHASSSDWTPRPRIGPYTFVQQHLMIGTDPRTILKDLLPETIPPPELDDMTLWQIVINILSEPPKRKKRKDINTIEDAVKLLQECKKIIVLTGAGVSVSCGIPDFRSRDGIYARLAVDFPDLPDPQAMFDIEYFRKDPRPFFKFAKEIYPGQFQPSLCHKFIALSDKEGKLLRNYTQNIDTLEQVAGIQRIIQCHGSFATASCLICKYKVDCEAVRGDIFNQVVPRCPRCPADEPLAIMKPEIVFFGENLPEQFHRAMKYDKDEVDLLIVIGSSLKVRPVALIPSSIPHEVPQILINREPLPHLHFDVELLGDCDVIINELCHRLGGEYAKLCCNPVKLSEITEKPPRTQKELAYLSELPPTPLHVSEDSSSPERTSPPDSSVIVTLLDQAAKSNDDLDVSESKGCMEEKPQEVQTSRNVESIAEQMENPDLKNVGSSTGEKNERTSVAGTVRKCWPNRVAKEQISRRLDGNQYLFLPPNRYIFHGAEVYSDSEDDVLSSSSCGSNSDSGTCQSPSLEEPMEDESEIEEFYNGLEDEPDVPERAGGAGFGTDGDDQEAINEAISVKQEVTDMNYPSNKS

How the values were obtained:
Test in all cases: co-IP
FLAG-SIRT1-WT (mouse) = target: T1, FLAG-SIRT1-WT (mouse) (UniProt Q923E4)
T1 sequence: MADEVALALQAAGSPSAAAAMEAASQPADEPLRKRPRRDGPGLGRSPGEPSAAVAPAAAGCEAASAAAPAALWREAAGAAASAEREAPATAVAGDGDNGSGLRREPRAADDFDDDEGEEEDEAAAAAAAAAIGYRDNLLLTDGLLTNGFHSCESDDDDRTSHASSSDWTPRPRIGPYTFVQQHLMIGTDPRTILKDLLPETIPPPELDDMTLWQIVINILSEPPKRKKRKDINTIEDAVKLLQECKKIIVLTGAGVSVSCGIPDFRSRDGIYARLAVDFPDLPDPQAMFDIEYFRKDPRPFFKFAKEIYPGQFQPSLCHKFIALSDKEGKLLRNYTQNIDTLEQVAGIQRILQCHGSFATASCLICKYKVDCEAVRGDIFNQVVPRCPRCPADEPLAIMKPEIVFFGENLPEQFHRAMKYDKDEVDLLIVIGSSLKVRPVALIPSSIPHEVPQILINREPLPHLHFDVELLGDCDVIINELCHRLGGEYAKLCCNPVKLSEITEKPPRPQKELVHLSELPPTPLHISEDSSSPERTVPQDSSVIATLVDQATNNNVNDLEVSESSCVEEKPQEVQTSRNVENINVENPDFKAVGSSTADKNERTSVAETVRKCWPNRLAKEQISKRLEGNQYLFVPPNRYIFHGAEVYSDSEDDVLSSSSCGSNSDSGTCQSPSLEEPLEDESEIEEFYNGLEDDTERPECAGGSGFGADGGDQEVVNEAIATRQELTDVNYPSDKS

[1] = target: endogenous SIRT1 (human (endogenous in HEK293T)) (UniProt Q96EB6)
FLAG-SIRT1-mutE2 (mouse) = target: T2, FLAG-SIRT1-mutE2 (mouse) (UniProt Q923E4)
T2 sequence: T1 sequence with T160A, S161A

binding (FLAG-SIRT1-WT (mouse)): binds
B1: HA-OGT (enzyme, UniProt O15294 1-1046)
chain: MASSVGNVADSTEPTKRMLSFQGLAELAHREYQAGDFEAAERHCMQLWRQEPDNTGVLLLLSSIHFQCRRLDRSAHFSTLAIKQNPLLAEAYSNLGNVYKERGQLQEAIEHYRHALRLKPDFIDGYINLAAALVAAGDMEGAVQAYVSALQYNPDLYCVRSDLGNLLKALGRLEEAKACYLKAIETQPNFAVAWSNLGCVFNAQGEIWLAIHHFEKAVTLDPNFLDAYINLGNVLKEARIFDRAVAAYLRALSLSPNHAVVHGNLACVYYEQGLIDLAIDTYRRAIELQPHFPDAYCNLANALKEKGSVAEAEDCYNTALRLCPTHADSLNNLANIKREQGNIEEAVRLYRKALEVFPEFAAAHSNLASVLQQQGKLQEALMHYKEAIRISPTFADAYSNMGNTLKEMQDVQGALQCYTRAIQINPAFADAHSNLASIHKDSGNIPEAIASYRTALKLKPDFPDAYCNLAHCLQIVCDWTDYDERMKKLVSIVADQLEKNRLPSVHPHHSMLYPLSHGFRKAIAERHGNLCLDKINVLHKPPYEHPKDLKLSDGRLRVGYVSSDFGNHPTSHLMQSIPGMHNPDKFEVFCYALSPDDGTNFRVKVMAEANHFIDLSQIPCNGKAADRIHQDGIHILVNMNGYTKGARNELFALRPAPIQAMWLGYPGTSGALFMDYIITDQETSPAEVAEQYSEKLAYMPHTFFIGDHANMFPHLKKKAVIDFKSNGHIYDNRIVLNGIDLKAFLDSLPDVKIVKMKCPDGGDNADSSNTALNMPVIPMNTIAEAVIEMINRGQIQITINGFSISNGLATTQINNKAATGEEVPRTIIVTTRSQYGLPEDAIVYCNFNQLYKIDPSTLQMWANILKRVPNSVLWLLRFPAVGEPNIQQYAQNMGLPQNRIIFSPVAPKEEHVRRGQLADVCLDTPLCNGHTTGMDVLWAGTPMVTMPGETLASRVAASQLTCLGCLELIAKNRQEYEDIAVKLGTDLEYLKKVRGKVWKQRISSPLFNTKQYTMELERLYLQMWEHYAAGNKPDHMIKPVEVTESA

binding [1]: binds
binding (FLAG-SIRT1-mutE2 (mouse)): binds
binding (FLAG-SIRT1-WT (mouse)): binds
B2: PPARα (protein, UniProt Q07869 1-468)
chain: MVDTESPLCPLSPLEAGDLESPLSEEFLQEMGNIQEISQSIGEDSSGSFGFTEYQYLGSCPGSDGSVITDTLSPASSPSSVTYPVVPGSVDESPSGALNIECRICGDKASGYHYGVHACEGCKGFFRRTIRLKLVYDKCDRSCKIQKKNRNKCQYCRFHKCLSVGMSHNAIRFGRMPRSEKAKLKAEILTCEHDIEDSETADLKSLAKRIYEAYLKNFNMNKVKARVILSGKASNNPPFVIHDMETLCMAEKTLVAKLVANGIQNKEAEVRIFHCCQCTSVETVTELTEFAKAIPGFANLDLNDQVTLLKYGVYEAIFAMLSSVMNKDGMLVAYGNGFITREFLKSLRKPFCDIMEPKFDFAMKFNALELDDSDISLFVAAIICCGDRPGLLNVGHIEKMQEGIVHVLRLHLQSNHPDDIFLFPKLLQKMADLRQLVTEHAQLVQIIKKTESDAALHPLLQEIYRDMY
